# In patent US4975433A, “Aminomethyl derivatives of biologically active substances and enhanced delivery thereof across topical membranes” (priority 1989, dated 1990):
# Like-named read-outs stand apart in the source and are kept apart here.
smiles,measurement,setting,value
"O=c1[nH]cc(F)c(=O)[nH]1 [VII, 5-Fluorouracil]",mg present as parent drug in solution in donor phase,IPM,0.0022 mg
same,mg present as parent drug in solution in donor phase,PG,2.6 mg
